PubChem BioAssay AID504764, Drosophila RNAi Screening Center, 2011

Purpose: 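Genes whose knock-down alters Notch-dependent transcription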 (primary screen)
Cells: Drosophila Kc167 cells
Knock-down reagent: long dsRNA against Drosophila genes
Time to read-out: about 5 days (4 days dsRNA, then 24 h after transfection)
Challenge: transfection of constitutively active membrane-tethered Notch lacking the extracellular domain, read 24 h later
Detection: 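Light from a Notch-responsive E(spl)m3 luciferase reporter under active Notch, with control-promoter and no-Notch reporter wells to normalise; raw counts from paired wells a and b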
Reading the numbers: induced reporter light, run 1, well a and induced reporter light, run 1, well b: higher = more light from the Notch target reporter with active Notch; control promoter light, run 1, well a and control promoter light, run 1, well b: higher = more light from the viral control promoter (cell number, transfection, viability); uninduced reporter light, run 1, well a: higher = more light from the Notch target reporter without active Notch
Hit rule: 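Wells with low control signal or poorly matching duplicates excluded; duplicates averaged; per source plate, z beyond ±2 for induced/control log2 ratio or beyond ±1.8 for induced/uninduced marks a hit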
Meaning of the calls: active = modifier hit (raised or lowered Notch signal); inactive = not a hit
The screen tested about 22,000 reagents; below is an unselected part of those with a known target gene and a result. In the full data, 403 (1.9%) were called active. 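Unnormalised raw counts per well; ratio z-scores behind the hit calls and whether each hit raises or lowers signal are not deposited.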 Unmarked entries are inactive. The record does not give: the amount of reagent.

gene	DRSC id	induced reporter light, run 1, well a	induced reporter light, run 1, well b	control promoter light, run 1, well a	control promoter light, run 1, well b	uninduced reporter light, run 1, well a
CG14313	DRSC14792	1.39e5	1.31e5	1.67e5	1.80e5	11840
Sema2a	DRSC07551	1.01e5	84955	1.45e5	1.45e5	6215
dco	DRSC16929	49820	56725	69140	62905	4575
CG15784	DRSC18090	99225 (active)	94165	2.50e5	3.10e5	10860
CR30068 (retired record)	DRSC05477	1.42e5	1.78e5	2.64e5	2.12e5	14490
CG17977	DRSC06700	2.25e5	2.11e5	2.46e5	2.12e5	15370
Su(fu)	DRSC16871	1.83e5	1.40e5	93400	78195	11245
scw	DRSC01711	69710	58605	77685	80610	5010
scw	DRSC21252	1.45e5	1.06e5	1.70e5	1.36e5	11670
Hr96	DRSC16707	1.52e5	1.48e5	1.98e5	1.94e5	15935
CG15641	DRSC19677	64035	61045	67220	71220	9920
Nhe3	DRSC03380	1.58e5	1.49e5	1.60e5	1.58e5	8005
CG7024	DRSC18414	1.16e5	1.06e5	2.16e5	2.07e5	10295
RpL15	DRSC20963	16020	17395	20920	19332	1570
CG16713	DRSC00477	1.67e5	1.49e5	1.64e5	1.89e5	10755
CG14770	DRSC17947	1.33e5	1.19e5	1.63e5	2.18e5	8745
CG15203	DRSC19650	1.25e5	1.08e5	2.14e5	2.15e5	9610
Arv1	DRSC11491	2.06e5	2.34e5	2.74e5	2.83e5	21055
mIF3	DRSC06290	91445	89295	1.35e5	1.08e5	9345
Pex11c	DRSC14677	1.69e5	1.58e5	1.89e5	1.92e5	12805
Cyp12e1	DRSC16622	64175	71130	66805	46420	3865
Cyp49a1	DRSC06737	2.23e5	1.97e5	3.48e5	3.09e5	24755
Cyp49a1	DRSC07367	2.42e5	2.33e5	2.96e5	2.58e5	18950
nompB	DRSC03701	44375	41980	53735	37340	2300
nompB	DRSC03731	48715	47320	49880	71305	2540
CG15048 (retired record)	DRSC19624	97830	92665	1.22e5	97200	12540
CG14043	DRSC02368	1.51e5	1.07e5	1.31e5	1.18e5	7925
CG31817	DRSC01537	75370	80340	70740	57340	5315
CG31817	DRSC01538	84270	77690	61960	45840	5705
CG32305	DRSC08614	1.03e5	1.37e5	2.15e5	1.88e5	7550
sky	DRSC02383	2.37e5	2.29e5	1.73e5	1.97e5	18330
sky	DRSC03214	2.10e5	1.73e5	1.63e5	1.84e5	17765
sky	DRSC03215	62355	41340	39320	36625	1580
CG7810	DRSC03072	1.73e5	2.26e5	1.63e5	1.99e5	15960
Calx	DRSC13457	76945	72320	1.08e5	79790	10935
Calx	DRSC13459	50650	46040	56795	60495	7015
Calx	DRSC16599	1.70e5	1.85e5	2.23e5	2.18e5	13720
Lint-O	DRSC18468	83470	77855	1.46e5	1.20e5	7835
Rab32	DRSC05146	35030	53090	57695	71725	1825
Rab32	DRSC07522	1.83e5	2.13e5	1.87e5	1.84e5	15650
hb	DRSC16963	1.16e5	1.09e5	45700	48315	11778
fan	DRSC10930	2.40e5	2.52e5	2.82e5	2.38e5	9650
Ir93a	DRSC15212	29065	34830	28620	38140	2395
Ir93a	DRSC15213	1.73e5 (active)	1.47e5	1.27e5	1.17e5	11545
Agps	DRSC05984	71440	77935	1.23e5	1.04e5	5935
CG7627	DRSC03065	1.63e5	2.18e5	1.88e5	1.71e5	19785
CG1513	DRSC05194	76080	81190	92490	86985	5030
CG1513	DRSC06553	1.53e5	1.73e5	2.27e5	1.77e5	11278
CG1513	DRSC06554	1.46e5	1.56e5	2.25e5	2.02e5	14875
Send1	DRSC00482	96635	1.15e5	73455	40790	8950

7 entries from above, ordered by “uninduced reporter light, run 1, well a”, descending:
gene	DRSC id	induced reporter light, run 1, well a	induced reporter light, run 1, well b	control promoter light, run 1, well a	control promoter light, run 1, well b	uninduced reporter light, run 1, well a
Cyp49a1	DRSC06737	2.23e5	1.97e5	3.48e5	3.09e5	24755
Cyp49a1	DRSC07367	2.42e5	2.33e5	2.96e5	2.58e5	18950
CG15048 (retired record)	DRSC19624	97830	92665	1.22e5	97200	12540
CG14043	DRSC02368	1.51e5	1.07e5	1.31e5	1.18e5	7925
Cyp12e1	DRSC16622	64175	71130	66805	46420	3865
nompB	DRSC03731	48715	47320	49880	71305	2540
nompB	DRSC03701	44375	41980	53735	37340	2300
